Experimental data reported in paper PMC9287142.
These are yes or no findings as the source states them, for the method shown. Binding seen in cells or lysates may run through a third protein. Some entries that bind do so weakly or less than the wild type. For part of these data: Sequences can lack the tags named with a protein.

By UniProt entry, the sequences of proteins in these tests, tags left out.
UniProt Q9UKM9: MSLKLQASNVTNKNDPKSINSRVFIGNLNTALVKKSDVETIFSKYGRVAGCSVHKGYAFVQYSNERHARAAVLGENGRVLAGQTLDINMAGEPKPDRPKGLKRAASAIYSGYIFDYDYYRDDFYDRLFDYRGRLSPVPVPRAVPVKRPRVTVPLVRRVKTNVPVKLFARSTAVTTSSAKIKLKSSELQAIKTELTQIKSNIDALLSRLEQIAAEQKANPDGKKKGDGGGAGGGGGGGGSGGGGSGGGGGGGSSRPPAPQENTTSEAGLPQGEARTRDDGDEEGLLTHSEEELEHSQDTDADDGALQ

B1: MYC-MARCH8 (protein, UniProt Q5T0T0 1-291)
chain: MSMPLHQISAIPSQDAISARVYRSKTKEKEREEQNEKTLGHFMSHSSNISKAGSPPSASAPAPVSSFSRTSITPSSQDICRICHCEGDDESPLITPCHCTGSLHFVHQACLQQWIKSSDTRCCELCKYEFIMETKLKPLRKWEKLQMTSSERRKIMCSVTFHVIAITCVVWSLYVLIDRTAEEIKQGQATGILEWPFWTKLVVVAIGFTGGLLFMYVQCKVYVQLWKRLKAYNRVIYVQNCPETSKKNIFEKSPLTEPNFENKHGYGICHSDTNSSCCTEPEDTGAEIIHV
B2: MYC-NDP52 (protein, UniProt Q13137 1-446)
chain: MEETIKDPPTSAVLLDHCHFSQVIFNSVEKFYIPGGDVTCHYTFTQHFIPRRKDWIGIFRVGWKTTREYYTFMWVTLPIDLNNKSAKQQEVQFKAYYLPKDDEYYQFCYVDEDGVVRGASIPFQFRPENEEDILVVTTQGEVEEIEQHNKELCKENQELKDSCISLQKQNSDMQAELQKKQEELETLQSINKKLELKVKEQKDYWETELLQLKEQNQKMSSENEKMGIRVDQLQAQLSTQEKEMEKLVQGDQDKTEQLEQLKKENDHLFLSLTEQRKDQKKLEQTVEQMKQNETTAMKKQQELMDENFDLSKRLSENEIICNALQRQKERLEGENDLLKRENSRLLSYMGLDFNSLPYQVPTSDEGGARQNPGLAYGNPYSGIQESSSPSPLSIKKCPICKADDICDHTLEQQQMQPLCFNCPICDKIFPATEKQIFEDHVFCHSL
B3: NDP52 expressed in E. coli (protein, UniProt Q13137 1-446)
chain: B2 chain

Legend:
FLAG-RALY = FLAG-RALY (UniProt Q9UKM9); experiment: co-IP; HEK 293T cells cotransfected for 24 h, lysed in NP40 lysis buffer, anti-FLAG-antibody-bound Dynabeads Protein G, Western blot; also with RNase in the cell lysis
[1] = target: RALY expressed from pCold TF in E. coli (UniProt Q9UKM9); experiment: pull-down; GST affinity-isolation: proteins expressed from pCold GST or pCold TF in E. coli BL21 (DE3), GST Protein Interaction Pull-Down Kit (Thermo), eluted with reduced glutathione, Western blot

Binder | binding (FLAG-RALY) | binding [1]
B1 | binds | 
B2 | binds | 
B3 |  | binds
